These results are taken from PubChem BioAssay AID662 (National Center for Advancing Translational Sciences (NCATS), 2007).

One may read the AC50 as the midpoint of the concentration-response curve, whichever way the signal moves.

Each structure is given as a SMILES string. Several values for one entry are separate records, joined by “and”; a condition that tells them apart may be missing. Equal values may be shown once. The list shows a part of the results. These are further read-outs of the screen, such as a control signal, another cell line or another target. No call is given for them. Most of these compounds were active or inconclusive in the main read-out, so they are no random draw. The note in brackets gives the kind of curve behind each potency; many fits are weak.

A short description of this assay: Cell signaling CRE-BLA (Fsk stim). The following applies: CHO CRE-bla reporter (cAMP response element driving beta-lactamase), forskolin EC10, beta-lactamase ratio; measured here: 460 nm blue channel. In a few lines: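 CRE-bla CHO reporter cells treated with compound titration plus EC10 NKH 477 (water-soluble forskolin), incubated 3 h at 37 °C; CCF4 loading 2 h at room temperature, 460/530 nm emission ratio read, AC50 values derived for positive or negative modulators.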
`Cc1ccccc1Cn1c(CN2CCN(C(=O)c3ccco3)CC2)nc2c1c(=O)n(C)c(=O)n2C`: the half-maximal activity concentration (AC50) is 20 µM [falling, single point].
The figure for `c1ccc(SCc2nc(-c3ccccn3)no2)cc1` is 0.00316 µM [falling, full curve, poor fit]; for `O=c1c(-c2cccs2)nc2cnc(Oc3ccccc3)nc2n1C1CC1` it is 10 µM [rising, partial curve].
Regarding `COc1ccccc1N(C(=O)NCc1ccccc1)C1=NCC(C)S1` (stereo not drawn), the AC50 was 31.6 µM [falling, single point].
On to `COC(=O)c1c(NC(=O)c2ccco2)sc(C)c1C`, for which the AC50 is 10 µM [rising, partial curve].
As to `COc1ccc(NC(=O)CSc2nc3ccccc3c(=O)n2CCC(=O)N2CCCCC2)cc1`, the AC50 is 12.6 µM [rising, single point].
For `O=c1c(CCc2ccccc2)nc2cnc(N3CCOCC3)nc2n1CCc1ccccc1`, the AC50 is 12.6 µM [rising, single point].
In the case of `Cc1ccc(N2CC(c3nc4ccccc4n3C)CC2=O)cc1C` (stereo not drawn), the concentration at half-maximal activity (AC50) is 7.94 µM [rising, partial curve].
On to `Cc1ccc(/C(COc2ccccc2O)=N\O)cc1`, for which the AC50 is 5.01 µM [falling, partial curve].
`COc1ccc(C2c3c(-c4ccccc4O)n[nH]c3C(=O)N2CCc2ccc(OC)c(OC)c2)cc1` (stereo not drawn): the AC50 was 20 µM [falling, single point].
Take `CCOC(=O)c1c(-c2ccc(OC)cc2)nc2nonc2c1N`: the AC50 is 15.8 µM [rising, single point].
As for `COc1ccc(-c2nc(C3CCCCC3)no2)cc1OC`, the AC50 is 1 µM [rising, partial curve, poor fit].
As to `Cc1nc2cnc(OCc3ccccc3)nc2n(C)c1=O`, the AC50 is 10 µM [rising, partial curve].
As for `Cc1nnc2n(C3CCCCC3)c(=O)c3c4c(sc3n12)CCC4`, the figure is 1.58 µM [rising, partial curve]; as for `Cc1ccccc1CSc1ncc(C#N)c(N)n1`, 20 µM [rising, single point].
Regarding `COc1ccc(CNc2nc3nc(C)cc(C)n3n2)cc1OC`, the AC50 is 12.6 µM [rising, single point].
The figure for `O=Nc1c(-c2c(O)[nH]c3ccccc23)[nH]c2ccccc12` is 12.6 µM [falling, partial curve] and 15.8 µM [falling, partial curve]; for `c1ccc(C2=Nn3c(nnc3-c3cccnc3)SC2)cc1` it is 20 µM [rising, single point]; for `COc1ccc(Cl)cc1C(=O)Nc1ccccc1N1CCN(C(=O)C(C)C)CC1` it is 10 µM [rising, partial curve].
Consider `Cc1cc(Nc2cccc(C)c2C)n2nc(C)nc2n1`, for which the AC50 was 10 µM [rising, partial curve].
The figure for `CN1Cc2cc(C(=O)c3cc(Cl)cc(CSc4ncccn4)c3O)cnc2NC1=O` is 3.16 µM [rising, full curve]; for `O=C(CSc1ncn(-c2ccccc2)n1)Nc1ccc(Br)cn1` it is 25.1 µM [rising, single point]; for `CC[C@@]1(O)C(=O)COc2c1cc1n(c2=O)Cc2c-1nc1cccc(C(C)C)c1c2[Si](C)(C)C` it is 12.6 µM [rising, partial curve].
Regarding `COc1cccc(NC(=O)Cn2c(=O)n(CCCC(=O)NCc3ccco3)c(=O)c3ccccc32)c1`, the AC50 is 0.398 µM [falling, partial curve].
Turning to `[O-][n+]1onc2c1CCC1N(O)C(c3ccccc3)CC21O` (stereo not drawn), the AC50 was 3.98 µM [rising, partial curve].
Take `O=C(Nc1ccc(F)cc1)N(CCCN1CCOCC1)Cc1cc2cc3c(cc2[nH]c1=O)OCCO3`: the AC50 is 10 µM [rising, partial curve].
Turning to `Cc1cc(C)c2c(n1)nn1c(NCCN3CCOCC3)cc(C)nc21`, the AC50 is 0.251 µM [rising, full curve].
As for `O=C(Nc1ccc(N2CCOCC2)c(Cl)c1)C1CCCCC1`, the figure is 20 µM [rising, single point].
As for `COc1ccc(C)cc1NC(=O)CCC(=O)Nc1ccc2nc(N3CCN(C)CC3)cc(C)c2c1`, the figure is 7.94 µM [rising, partial curve]; as for `CSCCC(NC(=O)c1cc(CC(C)C)oc1C)C(=O)O` (stereo not drawn), 0.02 µM [falling, full curve, poor fit]; as for `COC(=O)c1sccc1NC(=O)c1ccc(Br)o1`, 1 µM [rising, partial curve].
The figure for `O=C(NCc1ccccn1)C1COc2ccccc2O1` (stereo not drawn) is 10 µM [rising, single point]; for `COc1ccc(NC(=O)c2cc3c(=O)n(C)c4ccccc4c3n2C)cc1OC` it is 2.51 µM [rising, full curve]; for `CCCCN1CC(O)=C(c2nc3ccccc3[nH]2)C1=N` it is 7.94 µM [falling, partial curve].
Consider `CSCC[C@H](NC(=O)OC(C)(C)C)c1nnc(SCc2ccc(F)cc2)o1`, for which the AC50 was 12.6 µM [rising, partial curve].
The figure for `CC(=O)C1=C(O)C(=O)N(CCc2c[nH]c3ccccc23)C1c1ccc(O)cc1` (stereo not drawn) is 20 µM [falling, partial curve, poor fit]; for `Cc1oc(-c2cccc(Cl)c2)nc1CN1CCCC(C(=O)NC(C)c2ccc3c(c2)OCCO3)C1` (stereo not drawn) it is 20 µM [falling, single point].
On to `C=CCNc1nc2c(c(=O)[nH]c(=O)n2C)n1Cc1cccc(C)c1`, for which the AC50 was 10 µM [rising, partial curve].
As for `O=C(c1ccccn1)N(Cc1cc2ccccc2[nH]c1=O)C1CCCCC1`, the figure is 3.98 µM [rising, partial curve]; as for `O=S(=O)(Nc1cccc(C(F)(F)F)c1)c1cccnc1`, 0.316 µM [falling, single point].
As for `CC(C)CCNc1nc2c(c(=O)n(Cc3cccc(F)c3)c(=O)n2C)n1C`, the figure is 3.16 µM [rising, single point]; as for `Cc1csc(NC(=O)NC2(C(F)(F)F)Oc3ccccc3O2)n1`, 0.398 µM [falling, full curve]; as for `CN(C)c1ncnc2ccc(-c3cccc(C#N)c3)cc12`, 7.94 µM [rising, partial curve].
